Experimental data reported in paper PMC5025801.

The chains behind the UniProt entries cited, without tags or fusion partners. Residues count along the entry.
UniProt P07766, residues 23-207: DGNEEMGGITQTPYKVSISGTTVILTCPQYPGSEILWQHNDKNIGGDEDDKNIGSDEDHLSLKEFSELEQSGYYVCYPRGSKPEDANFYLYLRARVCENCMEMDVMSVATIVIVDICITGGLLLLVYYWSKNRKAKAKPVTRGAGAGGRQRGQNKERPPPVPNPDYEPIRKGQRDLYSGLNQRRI

Target: T1, Oxysterol-binding protein (OSBP)-related protein 4, long variant (ORP4L) (human (endogenous in Jurkat)) (UniProt Q969R2)
T1 sequence: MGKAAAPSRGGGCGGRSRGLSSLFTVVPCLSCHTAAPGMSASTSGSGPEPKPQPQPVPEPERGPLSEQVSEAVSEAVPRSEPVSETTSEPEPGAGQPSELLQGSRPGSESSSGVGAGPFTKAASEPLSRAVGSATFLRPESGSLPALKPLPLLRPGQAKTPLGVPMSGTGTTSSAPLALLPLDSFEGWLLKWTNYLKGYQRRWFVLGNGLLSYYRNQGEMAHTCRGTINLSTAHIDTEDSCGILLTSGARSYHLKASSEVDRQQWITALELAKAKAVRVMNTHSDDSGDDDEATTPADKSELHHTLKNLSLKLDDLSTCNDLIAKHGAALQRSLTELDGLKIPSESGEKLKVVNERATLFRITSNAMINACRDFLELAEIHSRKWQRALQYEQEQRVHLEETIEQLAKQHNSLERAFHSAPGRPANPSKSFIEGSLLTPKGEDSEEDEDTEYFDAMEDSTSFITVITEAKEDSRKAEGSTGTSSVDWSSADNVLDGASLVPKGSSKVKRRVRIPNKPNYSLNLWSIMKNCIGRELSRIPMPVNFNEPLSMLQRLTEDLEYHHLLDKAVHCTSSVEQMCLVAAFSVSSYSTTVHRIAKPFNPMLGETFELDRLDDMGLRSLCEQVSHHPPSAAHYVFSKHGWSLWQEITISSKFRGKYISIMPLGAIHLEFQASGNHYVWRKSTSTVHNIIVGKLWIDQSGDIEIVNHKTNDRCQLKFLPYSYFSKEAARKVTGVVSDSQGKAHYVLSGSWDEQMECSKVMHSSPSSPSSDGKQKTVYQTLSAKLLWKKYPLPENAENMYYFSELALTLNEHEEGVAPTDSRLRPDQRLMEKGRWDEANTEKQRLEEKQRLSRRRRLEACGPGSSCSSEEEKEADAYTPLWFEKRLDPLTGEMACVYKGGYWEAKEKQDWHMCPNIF
Assay: affinity purification with mass spectrometry; anti-ORP4L antibody (rabbit, raised against residues 382-485) or control IgG coupled to CNBr-activated sepharose; total lysates of Jurkat T-cells stimulated with 10 μg/ml anti-CD3 for 5 min; SDS-PAGE, in-gel tryptic digestion, mass spectrometry

| Molecule | binding |
| --- | --- |
| CD3ɛ (from UniProt P07766 23-207) | binds |
| PLCβ3 (enzyme, UniProt Q01970 1-1234) MAGAQPGVHALQLEPPTVVETLRRGSKFIKWDEETSSRNLVTLRVDPNGFFLYWTGPNMEVDTLDISSIRDTRTGRYARLPKDPKIREVLGFGGPDARLEEKLMTVVSGPDPVNTVFLNFMAVQDDTAKVWSEELFKLAMNILAQNASRNTFLRKAYTKLKLQVNQDGRIPVKNILKMFSADKKRVETALESCGLKFNRSESIRPDEFSLEIFERFLNKLCLRPDIDKILLEIGAKGKPYLTLEQLMDFINQKQRDPRLNEVLYPPLRPSQARLLIEKYEPNQQFLERDQMSMEGFSRYLGGEENGILPLEALDLSTDMTQPLSAYFINSSHNTYLTAGQLAGTSSVEMYRQALLWGCRCVELDVWKGRPPEEEPFITHGFTMTTEVPLRDVLEAIAETAFKTSPYPVILSFENHVDSAKQQAKMAEYCRSIFGDALLIEPLDKYPLAPGVPLPSPQDLMGRILVKNKKRHRPSAGGPDSAGRKRPLEQSNSALSESSAATEPSSPQLGSPSSDSCPGLSNGEEVGLEKPSLEPQKSLGDEGLNRGPYVLGPADREDEEEDEEEEEQTDPKKPTTDEGTASSEVNATEEMSTLVNYIEPVKFKSFEAARKRNKCFEMSSFVETKAMEQLTKSPMEFVEYNKQQLSRIYPKGTRVDSSNYMPQLFWNVGCQLVALNFQTLDVAMQLNAGVFEYNGRSGYLLKPEFMRRPDKSFDPFTEVIVDGIVANALRVKVISGQFLSDRKVGIYVEVDMFGLPVDTRRKYRTRTSQGNSFNPVWDEEPFDFPKVVLPTLASLRIAAFEEGGKFVGHRILPVSAIRSGYHYVCLRNEANQPLCLPALLIYTEASDYIPDDHQDYAEALINPIKHVSLMDQRARQLAALIGESEAQAGQETCQDTQSQQLGSQPSSNPTPSPLDASPRRPPGPTTSPASTSLSSPGQRDDLIASILSEVAPTPLDELRGHKALVKLRSRQERDLRELRKKHQRKAVTLTRRLLDGLAQAQAEGRCRLRPGALGGAADVEDTKEGEDEAKRYQEFQNRQVQSLLELREAQVDAEAQRRLEHLRQALQRLREVVLDANTTQFKRLKEMNEREKKELQKILDRKRHNSISEAKMRDKHKKEAELTEINRRHITESVNSIRRLEEAQKQRHDRLVAGQQQVLQQLAEEEPKLLAQLAQECQEQRARLPQEIRRSLLGEMPEGLGDGPLVACASNGHAPGSSGHLSGADSESQEENTQL | binds |

Results are given in words; binding and its absence hold for the method and conditions named. In cells and extracts the contact can be indirect. These calls come from enrichment with a bait or labelling near it, and not all partners need be listed.
